Some entries share one result that the patent states for a list of compounds.
Legend:
[1] = tested on: birch-induced production of IL-4 in PBMC; test: Birch allergen (Bet v) induced IL-4 production in PBMC cultures of birch allergic subjects; format: cell-based, human; conditions: 1, 10, 100 μg/ml, Bet v 50 μg/ml
Source text: During pollen season, 14 adult birch allergic subjects with allergic rhinoconjunctivitis (12 females and two males) were enrolled in the study (mean age 42.5 years, SD 12.4 years; mean birch-specific IgE (Immunocap, Thermo Fisher Scientific Phadia, Uppsala, Sweden) 36.1 kU/1, SD 31.5 kU/1). They were selected for the study from an earlier cohort based on good birch induced IL-4 responses during pollen season. All samples were taken after informed consent. The study was approved by the local ethics committee.
Peripheral blood mononuclear cells (PBMC) were isolated by Ficoll-Paque density gradient centrifugation (Ficoll-Paque PLUS, GE Healthcare BioSciences AB, Uppsala, Sweden) from heparinized blood samples from study subjects during pollen season. […]
The cytokines IL-4 and TNF in supernatants were measured with highsensitivity human cytokine Lincoplex kits (LINCO Research, St. Charles, Mo., USA). […]
Wilcoxon's Signed Rank test was used to test statistical significance in PBMC experiments. […] Data are expressed as mean±SEM and P-values of <0.05 are considered statistically significant.

Water solubility = format: physicochemical

Row | SMILES | dose-response curves of suppression of IL-4 [1] | water solubility (Water solubility)
1 | CC(=O)OCC1O[C@H](OCCn2cc(COCC(COCc3cn(CCO[C@H]4OC(COC(C)=O)[C@@H](OC(C)=O)[C@H](OC(C)=O)C4O[C@@H]4OC(COC(C)=O)[C@@H](OC(C)=O)[C@H](OC(C)=O)C4OC(C)=O)nn3)OCc3cn(CCO[C@H]4OC(COC(C)=O)[C@@H](OC(C)=O)[C@H](OC(C)=O)C4O[C@@H]4OC(COC(C)=O)[C@@H](OC(C)=O)[C@H](OC(C)=O)C4OC(C)=O)nn3)nn2)C(O[C@@H]2OC(COC(C)=O)[C@@H](OC(C)=O)[C@H](OC(C)=O)C2OC(C)=O)[C@@H](OC(C)=O)[C@@H]1OC(C)=O (stereo partly drawn) [compound 1, 1,2,3-tris[1-(3-{0-(2,3,4,6-tetra-O-acetyl-β-D-mannopyranosyl)-(1→2)-3,4,6-tri-O-acetyl-α-D-mannopyranosyloxy}ethyl)-4-methyloxy-1,2,3-triazolyl]propane] | Dose-response curves of suppression were seen | poor
2 | CC(=O)OCC1O[C@@H](OC2C(OC(C)=O)[C@H](OC(C)=O)C(COC(C)=O)O[C@@H]2OCCOCCOCCn2cc(COCC(COCc3cn(CCOCCOCCO[C@H]4OC(COC(C)=O)[C@@H](OC(C)=O)C(OC(C)=O)C4O[C@@H]4OC(COC(C)=O)[C@@H](OC(C)=O)C(OC(C)=O)C4OC(C)=O)nn3)OCc3cn(CCOCCOCCO[C@H]4OC(COC(C)=O)[C@@H](OC(C)=O)C(OC(C)=O)C4O[C@@H]4OC(COC(C)=O)[C@@H](OC(C)=O)C(OC(C)=O)C4OC(C)=O)nn3)nn2)C(OC(C)=O)C(OC(C)=O)[C@@H]1OC(C)=O (stereo partly drawn) [compound 3, 1,2,3-tris(1-{2-[2-(2-[O-(2,3,4,6-tetra-O-acetyl-β-D-mannopyranosyl)-(1→2)-3,4,6-tri-O-acetyl-α-D-mannopyranosyloxy]ethoxy)-ethoxy]ethyl}-4-methyloxy-1,2,3-triazolyl)propane] | Dose-response curves of suppression were seen | poor

Source: patent US20200270294A1, “IMMUNOSTIMULATORY ADJUVANTS AND USES THEREOF” (TURUN YLIOPISTO, priority 2015, published 2020)
